Assay results published in patent publication US8293489B2, “Methods for detection of biological substances” (priority 2007, dated 2012).
Marks after values point to notes of the source that are not given here.

Key:
Design in all cases: species or system human
[1] = 96 plate colorimetric ELISA comparison of biological substances in various bodily fluids
[2] = tested on: endostatin; test: Endostatin in plasma, urine, saliva and nasal mucus
[3] = tested on: EPO; test: EPO in plasma, urine, saliva and nasal mucus
[4] = tested on: GM-CSF; test: GM-CSF in plasma, urine, saliva and nasal mucus
[5] = tested on: HGF; test: HGF in plasma, urine, saliva and nasal mucus
[6] = tested on: IGF 1; test: IGF 1 in saliva and nasal mucus; conditions: (26) subjects
[7] = tested on: TNFα; test: TNFα in saliva and nasal mucus; conditions: 75 subjects
[8] = tested on: TRAIL; test: TRAIL in saliva and nasal mucus in normal subjects and patients with smell loss
[9] = NASAL MUCUS, PATIENTS (10) with smell loss
[10] = NASAL MUCUS, PATIENTS (65) with Hyposmia
[11] = SALIVA, PATIENTS (10) with smell loss
[12] = SALIVA, PATIENTS (65) with Hyposmia

Substance	concentration in NASAL MUCUS [1]	concentration in PLASMA [1]	concentration in SALIVA [1]	concentration in URINE [1]	further results
Agout Related Protein (SSRRCVRLHESCLGQQVPCCDPCATCYCRFFNAFCYCRKLGTAMNPCSRT; UniProt O00253 83-132, looked up)	4.0 ± 0.9 pg/mL	38 ± 3 pg/mL	6.4 ± 1.1 pg/mL	147 ± 20 pg/mL	
ENDOSTATIN					ENDOSTATIN ([2]; NASAL MUCUS): 6.6 ± 1.3^a μg/ml; ENDOSTATIN/PROTEIN ([2]; NASAL MUCUS): 2.0 ± 0.43^a; ENDOSTATIN/PROTEIN ([2]; PLASMA): 15 ± 1; ENDOSTATIN ([2]; PLASMA, (15) subjects): 94 ± 10 µg/mL; ENDOSTATIN ([2]; SALIVA): 1.3 ± 0.3^a μg/ml; ENDOSTATIN/PROTEIN ([2]; SALIVA): 0.59 ± 0.04^a; ENDOSTATIN ([2]; URINE): 0.5 ± 0.04^a μg/ml
EPO					ERYTHROPOETIN ([3]; NASAL MUCUS): 15 ± 5 μIU/ml; ERYTHROPOETIN/PROTEIN ([3]; NASAL MUCUS): 9 ± 2^b; ERYTHROPOETIN/PROTEIN ([3]; PLASMA): 2 ± 0.3; ERYTHROPOETIN ([3]; PLASMA, (27) subjects): 13 ± 2 μIU/ml; ERYTHROPOETIN ([3]; SALIVA): 0 μIU/ml; ERYTHROPOETIN/PROTEIN ([3]; SALIVA): 0; ERYTHROPOETIN ([3]; URINE): 0 μIU/ml; ERYTHROPOETIN/PROTEIN ([3]; URINE): 0
Endothelial Nitric Oxide (ENO)	0 pg/mL	0 pg/mL	0 pg/mL	0 pg/mL	
Epidermal Growth Factor (EGF)	7730 ± 103 pg/mL	52 ± 7 pg/mL	1332 ± 258 pg/mL	81157 ± 11254 pg/mL	
Erythroporetin	7.0 ± 3.7 pg/mL	13.2 ± 2.0 pg/mL	0 pg/mL	0 pg/mL	
FAS Ligand	4.05 ± 1.9 pg/mL	63.7 ± 8.1 pg/mL	0 pg/mL	0.73 ± 1.6 pg/mL	
Fibroblastic Growth Factor, basic (FGF basic)	2.81 ± 1.3 pg/mL	0 pg/mL	0 pg/mL	0 pg/mL	
GM-CSF					GM-CSF ([4]; NASAL MUCUS): 2.55 ± 0.8 µg/dL; GM-CSF ([4]; PLASMA, (16) subjects): 0.42 ± 0.31 µg/dL; GM-CSF ([4]; SALIVA): 0 µg/dL; GM-CSF ([4]; URINE): 0 µg/dL
HGF					HGF ([5]; NASAL MUCUS): 2015 ± 431^a μg/ml; HGF/PROTEIN ([5]; NASAL MUCUS): 924 ± 227^a; HGF/PROTEIN ([5]; PLASMA): 100 ± 13; HGF ([5]; PLASMA, (17) subjects): 709 ± 91 µg/mL; HGF ([5]; SALIVA): 0 µg/mL; HGF/PROTEIN ([5]; SALIVA): 0; HGF ([5]; URINE): 623 ± 126 µg/mL
IGF 1					IGF 1 ([6]; NASAL MUCUS): 13.7 ± 0.4^b μg/ml; IGF 1/PROTEIN ([6]; NASAL MUCUS): 8.9 ± 1.0^a; IGF 1 ([6]; SALIVA): 11.4 ± 0.5 µg/mL; IGF 1/PROTEIN ([6]; SALIVA): 4.6 ± 0.4
Insulin-like Growth Factor (IGF-1)	4.2 ± 0.6 pg/mL		1.3 ± 0.3 pg/mL		
Interferon ω (IFN ω)	44 ± 11 pg/mL	38 ± 9 pg/mL	0 pg/mL	33 ± 15 pg/mL	
Interleukin 6 (IL-6)	21.60 ± 12.80 pg/mL	1.25 ± 0.18 pg/mL	0.79 ± 0.11 pg/mL	1.52 ± 0.43 pg/mL	
Interleukin 15 (IL-15)	21.6 ± 8.9 pg/mL	0.67 ± 0.12 pg/mL	0.56 ± 0.21 pg/mL	0.59 ± 0.36 pg/mL	
Interleukin 17 (IL-17)	2.06 ± 1.18 pg/mL	0 pg/mL	1.80 ± 0.7 pg/mL	3.49 ± 1.44 pg/mL	
Interleukin 18 (IL-18)	270 ± 85 pg/mL	334 ± 52 pg/mL	106 ± 22 pg/mL	0 pg/mL	
Leptin	272 ± 70 pg/mL	8788 ± 903 pg/mL	7.1 ± 1.0 pg/mL	0 pg/mL	
Leukemia Inhibitory Factor (LIF)	5.2 ± 3.8 pg/mL	0 pg/mL	0 pg/mL	0 pg/mL	
Matrix Metalliproteinase 1 (MMP-1)	300 ± 100 pg/mL	800 ± 200 pg/mL	0 pg/mL	0 pg/mL	
Platelet Derived Growth Factor-AA (PDGF)	420 ± 65 pg/mL	560 ± 166 pg/mL	673 ± 188 pg/mL	0 pg/mL	
Receptor for Advanced Glycotion End Product (RAGE)	0 pg/mL	935 ± 89 pg/mL	0 pg/mL	0 pg/mL	
Stem Cell Factor (SCF)	33.3 ± 4.6 pg/mL	846 ± 45 pg/mL		46.4 ± 6.2 pg/mL	
Substance P	270 ± 74 pg/mL	250 ± 31 pg/mL	137 ± 47 pg/mL	205 ± 27 pg/mL	
TNFα					TNFα ([7]; NASAL MUCUS): 12.8 ± 1.6^a μg/ml; TNFα/PROTEIN ([7]; NASAL MUCUS): 5.5 ± 1.3^a; TNFα ([7]; SALIVA): 0.43 ± 0.03 µg/mL; TNFα/PROTEIN ([7]; SALIVA): 0.15 ± 0.01
TRAIL	4681 ± 464 pg/mL	69 ± 17 pg/mL	685 ± 15 pg/mL	69 ± 12 pg/mL	TRAIL ([8]; NASAL MUCUS, NORMALS (17)): 1639 ± 89 µg/mL; TRAIL/PROTEIN ([8]; NASAL MUCUS, NORMALS (17)): 770 ± 35; TRAIL ([8]; NASAL MUCUS, NORMALS (28)): 1990 ± 119 µg/mL; TRAIL/PROTEIN ([8]; NASAL MUCUS, NORMALS (28)): 7.56 ± 28; TRAIL [8, 9]: 2584 ± 430 µg/mL; TRAIL/PROTEIN [8, 9]: 4753 ± 1400; TRAIL [8, 10]: 4121 ± 54^a μg/ml; TRAIL/PROTEIN [8, 10]: 3095 ± 591^a; TRAIL ([8]; SALIVA, NORMALS (17)): 336 ± 48 µg/mL; TRAIL/PROTEIN ([8]; SALIVA, NORMALS (17)): 122 ± 14; TRAIL ([8]; SALIVA, NORMALS (28)): 123 ± 6 ^ μg/ml; TRAIL/FLOW RATE ([8]; SALIVA, NORMALS (28)): 343 ± 13^; TRAIL [8, 11]: 353 ± 31^ μg/ml; TRAIL/PROTEIN [8, 11]: 141 ± 20; TRAIL [8, 12]: 330 ± 25^a μg/ml; TRAIL/FLOW RATE [8, 12]: 582 ± 55^a
Tissue Inhibitor of Metalloproteinase 1 (TIMP-1)	4.326e+06 ± 553000 pg/mL	437000 ± 114000 pg/mL	215000 ± 62000 pg/mL	0 pg/mL	
Tumor Growth Factor alpha (TFG-alpha)	46 ± 8 pg/mL	0 pg/mL	0 pg/mL	0 pg/mL	
Vascular Endothelial Growth Factor - Receptor 2 (VEGF-R2)	350 ± 149 pg/mL	5074 ± 258 pg/mL	99 ± 25 pg/mL	223 ± 73 pg/mL	
inducible Nitric Oxide Synthase (iNOS)	19.9 ± 8.0 U/ml	9.5 ± 3.1 U/ml	11.9 ± 3.6 U/ml	15.8 ± 7.6 U/ml	
